From publication PMC8163507, “PHAROH lncRNA regulates Myc translation in hepatocellular carcinoma via sequestering TIAR” come the findings set out here.

The target of data set [1] is T1, TIAR (nucleolysin TIAR, TIAL-1) (human) (UniProt Q01085).
T1 sequence (looked up, limits assumed): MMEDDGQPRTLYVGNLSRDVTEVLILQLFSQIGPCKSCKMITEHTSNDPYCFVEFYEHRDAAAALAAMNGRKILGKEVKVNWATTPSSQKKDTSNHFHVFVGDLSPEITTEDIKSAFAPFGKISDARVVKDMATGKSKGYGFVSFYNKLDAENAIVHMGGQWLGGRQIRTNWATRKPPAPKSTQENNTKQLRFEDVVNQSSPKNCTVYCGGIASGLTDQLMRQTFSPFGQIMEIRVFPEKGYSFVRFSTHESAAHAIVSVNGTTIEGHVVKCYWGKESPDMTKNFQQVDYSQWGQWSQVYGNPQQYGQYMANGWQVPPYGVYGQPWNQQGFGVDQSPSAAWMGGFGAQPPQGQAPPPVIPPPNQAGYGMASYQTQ
Put plainly: EMSA. To be noted: EMSA: ~2 fmol probe in 20 ul, 10 mM HEPES pH 7.3, 20 mM KCl, 1 mM MgCl2 (printed Mg2Cl2), 1 mM DTT, 30 ng/ul BSA, 0.01% NP-40, 5% glycerol, room temperature 30 min, commercial protein. On the technique in general: Mobility shift assays separate free from complexed probe on a gel.

In data set [2] the target is T1, TIAR (nucleolysin TIAR, TIAL-1) (human). In words: competition with a labelled probe. The note with it: competes with N6 only slightly, at 10:1; EMSA: ~2 fmol probe in 20 ul, 10 mM HEPES pH 7.3, 20 mM KCl, 1 mM MgCl2 (printed Mg2Cl2), 1 mM DTT, 30 ng/ul BSA, 0.01% NP-40, 5% glycerol, room temperature 30 min; commercial protein; label: 3' biotin (competitor in Fig 7C).

The exact form of at least one protein or probe is not confirmed. Weaker means in comparison with the reference protein, sequence or condition of that experiment. Protein sequences can lack the tags named with them.

In the case of “GAGAGGAUGCCACUGUCUCGAACUACUCUGAAGGCACAGCCACCAGAGCCUUAGGGACAGGGUAUCCUAUC [PHAROH hairpin m4]”, the binding result in data set [1] (minimal binding, nearly abolished, label: 3' biotin (competitor in Fig 7C)) was “binds more weakly”; in data set [2] it was “binds more weakly”.
Regarding “GAGAGGAUGCCACUGUCUCGAACUACUCUGAAGGCACAGCCACCAGAGCCUUAGGGACAGGGUAUUUUAUC [PHAROH hairpin m3]”, the binding result in data set [1] (similar to m2, label: 3' biotin) is “binds more weakly”.
Turning to “GAGAGGAUGCCACUGUCUCGAACUACUCUGAAGGCACAGCCACCAGAGCUUUAGGGACAGGGUAUUUUAUC [PHAROH hairpin m2]”, the binding result in data set [1] (greatly reduced, two bands, label: 3' biotin) is “binds more weakly”.
As to “GAGAGGAUGCCACUGUCUCGAACUAUUUUGAAGGCACAGCCACCAGAGCUUUAGGGACAGGGUAUUUUAUC [PHAROH hairpin m1]”, the binding result in data set [1] (slightly reduced, prefers one and two copies, label: 3' biotin) is “binds more weakly”.
